Assay results taken from patent US11471390B2, “Pseudoceramide compound and use thereof” (DAEBONG LS, LTD, priority 2017, dated 2022).
Some of these results come from one statement about several compounds together.

Each compound was assayed on melanin production in B16F10 melanoma cells (assay: Inhibition of α-MSH-induced melanin production in B16F10 melanoma cells). Conditions: B16F10, α-MSH 100 nM, 3 days; compared with arbutin (500 ppm).
Type: cell-based, mouse

Row | SMILES | Inhibitory activity on melanin production
1 | CCCCCCCC/C=C\CCCCCCCC(=O)NC(CO)CO [Example 1, N-(1,3-dihydroxypropan-2-yl)oleamide] | concentration-dependent inhibitory activities on melanin production
2 | CCCCC/C=C\C/C=C\CCCCCCCC(=O)NC(CO)CO [Example 2, (9Z,12Z)—N-(1,3-dihydroxypropan-2-yl)octadeca-9,12-dienamide] | concentration-dependent inhibitory activities on melanin production
3 | CC/C=C\C/C=C\C/C=C\CCCCCCCC(=O)NC(CO)CO [Example 3, (9Z,12Z,15Z)—N-(1,3-dihydroxypropan-2-yl)octadeca-9,12,15-trienamide] | concentration-dependent inhibitory activities on melanin production
